Measurements: paper PMC6158883
These are yes or no findings as the source states them, for the method shown. Binding seen in cells or lysates may run through a third protein. These calls come from enrichment with a bait or labelling near it, and not all partners need be listed. A no says only that the protein was not detected with the bait.

Protein sequences, listed by entry. Tags and fused reporters are not part of them. Residues count along the entry.
UniProt P11586: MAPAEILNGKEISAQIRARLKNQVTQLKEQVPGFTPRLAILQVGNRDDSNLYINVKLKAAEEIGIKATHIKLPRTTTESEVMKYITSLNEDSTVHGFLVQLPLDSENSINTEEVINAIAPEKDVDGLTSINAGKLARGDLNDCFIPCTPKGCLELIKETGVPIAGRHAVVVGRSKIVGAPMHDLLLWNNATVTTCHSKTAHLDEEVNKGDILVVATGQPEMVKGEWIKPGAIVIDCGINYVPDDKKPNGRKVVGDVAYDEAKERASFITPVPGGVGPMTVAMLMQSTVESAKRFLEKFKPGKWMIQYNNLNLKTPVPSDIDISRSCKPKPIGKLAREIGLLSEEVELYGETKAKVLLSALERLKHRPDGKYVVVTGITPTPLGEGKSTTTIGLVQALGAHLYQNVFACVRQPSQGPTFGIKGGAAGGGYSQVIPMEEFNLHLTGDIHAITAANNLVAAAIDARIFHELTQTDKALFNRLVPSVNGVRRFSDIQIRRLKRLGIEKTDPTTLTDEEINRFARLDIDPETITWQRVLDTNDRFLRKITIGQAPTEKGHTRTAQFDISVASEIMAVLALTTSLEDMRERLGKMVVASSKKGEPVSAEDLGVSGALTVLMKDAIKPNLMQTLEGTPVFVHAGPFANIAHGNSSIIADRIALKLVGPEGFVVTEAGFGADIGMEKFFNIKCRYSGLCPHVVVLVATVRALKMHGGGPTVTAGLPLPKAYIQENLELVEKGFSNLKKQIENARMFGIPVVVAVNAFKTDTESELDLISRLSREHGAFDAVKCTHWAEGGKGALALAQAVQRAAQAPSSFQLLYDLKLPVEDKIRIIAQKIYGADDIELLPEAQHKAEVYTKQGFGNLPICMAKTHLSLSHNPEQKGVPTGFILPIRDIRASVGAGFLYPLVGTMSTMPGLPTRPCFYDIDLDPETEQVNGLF
UniProt P15311: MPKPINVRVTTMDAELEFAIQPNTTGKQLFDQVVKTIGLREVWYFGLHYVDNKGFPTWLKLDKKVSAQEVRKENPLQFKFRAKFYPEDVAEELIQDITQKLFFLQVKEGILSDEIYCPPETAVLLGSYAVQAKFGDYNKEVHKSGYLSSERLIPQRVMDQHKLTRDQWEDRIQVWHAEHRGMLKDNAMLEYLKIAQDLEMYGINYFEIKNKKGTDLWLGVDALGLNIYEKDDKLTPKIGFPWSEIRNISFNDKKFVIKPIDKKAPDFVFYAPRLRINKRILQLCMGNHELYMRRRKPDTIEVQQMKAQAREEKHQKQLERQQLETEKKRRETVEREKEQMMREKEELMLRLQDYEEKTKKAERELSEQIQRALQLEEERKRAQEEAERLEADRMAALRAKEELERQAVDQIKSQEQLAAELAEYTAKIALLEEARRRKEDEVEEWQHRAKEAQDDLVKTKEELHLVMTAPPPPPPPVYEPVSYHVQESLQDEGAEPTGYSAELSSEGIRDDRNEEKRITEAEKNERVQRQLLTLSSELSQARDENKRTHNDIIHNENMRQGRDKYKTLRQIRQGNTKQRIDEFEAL
UniProt O00571: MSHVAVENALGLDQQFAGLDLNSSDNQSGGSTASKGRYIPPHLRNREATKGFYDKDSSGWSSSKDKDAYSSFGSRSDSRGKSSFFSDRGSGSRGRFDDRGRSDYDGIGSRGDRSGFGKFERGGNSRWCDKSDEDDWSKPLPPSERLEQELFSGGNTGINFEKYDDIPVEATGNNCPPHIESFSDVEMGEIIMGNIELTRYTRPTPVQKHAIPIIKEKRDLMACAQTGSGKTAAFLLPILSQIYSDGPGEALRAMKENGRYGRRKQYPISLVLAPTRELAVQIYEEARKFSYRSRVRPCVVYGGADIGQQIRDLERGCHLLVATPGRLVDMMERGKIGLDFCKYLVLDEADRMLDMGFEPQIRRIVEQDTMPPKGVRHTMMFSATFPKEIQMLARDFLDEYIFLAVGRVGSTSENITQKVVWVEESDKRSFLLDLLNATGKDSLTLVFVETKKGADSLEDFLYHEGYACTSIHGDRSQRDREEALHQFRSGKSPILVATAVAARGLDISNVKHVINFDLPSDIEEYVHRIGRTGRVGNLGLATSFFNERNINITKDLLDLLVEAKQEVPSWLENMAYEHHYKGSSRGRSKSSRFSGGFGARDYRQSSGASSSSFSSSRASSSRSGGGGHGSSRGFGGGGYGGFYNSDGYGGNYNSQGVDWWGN
UniProt P27694: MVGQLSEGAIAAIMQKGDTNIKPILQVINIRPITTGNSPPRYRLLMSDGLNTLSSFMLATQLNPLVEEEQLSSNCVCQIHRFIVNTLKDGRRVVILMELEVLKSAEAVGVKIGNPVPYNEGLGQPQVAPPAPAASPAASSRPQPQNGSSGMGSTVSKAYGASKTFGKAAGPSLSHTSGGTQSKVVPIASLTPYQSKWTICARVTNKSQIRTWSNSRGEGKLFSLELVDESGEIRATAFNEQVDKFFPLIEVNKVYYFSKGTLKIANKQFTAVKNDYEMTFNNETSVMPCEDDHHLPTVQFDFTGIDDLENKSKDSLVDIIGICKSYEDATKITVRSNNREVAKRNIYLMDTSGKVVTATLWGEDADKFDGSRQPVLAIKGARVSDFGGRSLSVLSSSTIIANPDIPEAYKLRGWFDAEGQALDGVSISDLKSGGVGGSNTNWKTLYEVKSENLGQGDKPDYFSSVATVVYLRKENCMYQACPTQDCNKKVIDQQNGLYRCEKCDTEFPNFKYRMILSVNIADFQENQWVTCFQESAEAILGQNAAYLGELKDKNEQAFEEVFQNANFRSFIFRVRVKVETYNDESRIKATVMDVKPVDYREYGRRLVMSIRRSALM
UniProt P38646, residues 47-679: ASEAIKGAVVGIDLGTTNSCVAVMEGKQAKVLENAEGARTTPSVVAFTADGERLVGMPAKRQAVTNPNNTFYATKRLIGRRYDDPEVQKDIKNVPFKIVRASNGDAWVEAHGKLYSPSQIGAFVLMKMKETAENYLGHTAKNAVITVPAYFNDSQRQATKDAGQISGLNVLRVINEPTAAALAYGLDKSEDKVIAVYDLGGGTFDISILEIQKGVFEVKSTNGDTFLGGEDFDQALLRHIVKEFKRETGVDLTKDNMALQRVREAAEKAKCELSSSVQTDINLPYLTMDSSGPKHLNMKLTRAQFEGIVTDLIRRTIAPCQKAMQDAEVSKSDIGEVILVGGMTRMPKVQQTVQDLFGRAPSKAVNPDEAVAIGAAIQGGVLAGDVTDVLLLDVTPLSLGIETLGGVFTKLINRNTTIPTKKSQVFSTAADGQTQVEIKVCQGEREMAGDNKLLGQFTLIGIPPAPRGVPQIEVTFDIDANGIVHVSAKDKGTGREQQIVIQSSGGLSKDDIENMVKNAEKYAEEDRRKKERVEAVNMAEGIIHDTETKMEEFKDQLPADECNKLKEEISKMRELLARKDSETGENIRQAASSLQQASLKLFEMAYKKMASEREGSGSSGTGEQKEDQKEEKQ
UniProt Q12905: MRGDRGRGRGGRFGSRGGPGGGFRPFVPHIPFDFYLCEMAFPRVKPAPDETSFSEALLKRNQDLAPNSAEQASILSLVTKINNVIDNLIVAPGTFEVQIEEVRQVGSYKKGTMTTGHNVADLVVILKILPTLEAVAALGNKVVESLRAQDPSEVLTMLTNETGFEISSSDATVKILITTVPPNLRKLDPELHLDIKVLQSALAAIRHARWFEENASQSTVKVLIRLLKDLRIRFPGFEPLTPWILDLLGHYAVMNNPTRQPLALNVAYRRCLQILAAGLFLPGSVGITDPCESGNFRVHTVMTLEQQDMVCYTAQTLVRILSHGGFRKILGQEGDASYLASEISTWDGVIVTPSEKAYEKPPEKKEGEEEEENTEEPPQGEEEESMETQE
UniProt P11142: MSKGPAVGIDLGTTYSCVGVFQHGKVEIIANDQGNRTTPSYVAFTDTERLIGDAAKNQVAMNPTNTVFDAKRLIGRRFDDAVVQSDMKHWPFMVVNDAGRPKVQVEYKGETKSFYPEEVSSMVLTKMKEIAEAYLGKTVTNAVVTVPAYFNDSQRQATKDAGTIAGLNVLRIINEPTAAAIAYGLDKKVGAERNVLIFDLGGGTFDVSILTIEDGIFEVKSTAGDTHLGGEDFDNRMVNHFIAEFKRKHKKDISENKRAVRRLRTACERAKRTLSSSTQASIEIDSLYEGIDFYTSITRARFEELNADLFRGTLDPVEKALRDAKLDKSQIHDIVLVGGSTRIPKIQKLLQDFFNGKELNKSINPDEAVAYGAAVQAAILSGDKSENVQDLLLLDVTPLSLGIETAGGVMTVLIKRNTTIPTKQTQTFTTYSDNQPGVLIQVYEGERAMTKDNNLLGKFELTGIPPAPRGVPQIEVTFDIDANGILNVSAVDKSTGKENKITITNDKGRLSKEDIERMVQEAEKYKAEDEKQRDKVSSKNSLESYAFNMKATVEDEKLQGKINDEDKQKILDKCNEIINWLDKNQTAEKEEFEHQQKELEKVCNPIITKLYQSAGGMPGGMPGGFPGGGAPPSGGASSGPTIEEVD
UniProt P04818: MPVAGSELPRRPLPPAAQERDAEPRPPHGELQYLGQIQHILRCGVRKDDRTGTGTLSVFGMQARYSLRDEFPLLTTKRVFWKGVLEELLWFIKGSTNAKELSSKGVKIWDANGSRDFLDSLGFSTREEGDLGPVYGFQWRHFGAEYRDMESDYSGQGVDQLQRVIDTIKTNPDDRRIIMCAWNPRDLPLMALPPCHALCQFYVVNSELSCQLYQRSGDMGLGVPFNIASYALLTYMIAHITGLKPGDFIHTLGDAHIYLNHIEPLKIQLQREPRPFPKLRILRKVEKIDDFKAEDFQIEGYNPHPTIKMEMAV
UniProt O60506: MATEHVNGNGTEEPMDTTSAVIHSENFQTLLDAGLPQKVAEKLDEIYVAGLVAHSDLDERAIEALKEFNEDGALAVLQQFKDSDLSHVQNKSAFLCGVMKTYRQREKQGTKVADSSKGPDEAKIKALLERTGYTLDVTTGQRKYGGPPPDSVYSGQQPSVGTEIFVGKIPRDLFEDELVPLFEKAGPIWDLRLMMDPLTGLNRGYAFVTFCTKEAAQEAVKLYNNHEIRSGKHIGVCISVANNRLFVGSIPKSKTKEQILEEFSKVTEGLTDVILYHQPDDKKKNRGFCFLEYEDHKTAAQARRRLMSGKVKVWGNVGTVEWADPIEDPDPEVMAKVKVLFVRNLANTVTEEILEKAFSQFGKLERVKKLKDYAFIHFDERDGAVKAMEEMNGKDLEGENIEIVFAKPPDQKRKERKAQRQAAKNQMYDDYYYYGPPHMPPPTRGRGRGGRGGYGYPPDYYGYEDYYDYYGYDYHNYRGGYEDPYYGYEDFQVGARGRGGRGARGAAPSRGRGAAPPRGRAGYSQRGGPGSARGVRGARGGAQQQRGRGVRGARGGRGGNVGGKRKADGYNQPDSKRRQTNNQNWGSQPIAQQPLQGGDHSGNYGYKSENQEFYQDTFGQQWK
UniProt P00374: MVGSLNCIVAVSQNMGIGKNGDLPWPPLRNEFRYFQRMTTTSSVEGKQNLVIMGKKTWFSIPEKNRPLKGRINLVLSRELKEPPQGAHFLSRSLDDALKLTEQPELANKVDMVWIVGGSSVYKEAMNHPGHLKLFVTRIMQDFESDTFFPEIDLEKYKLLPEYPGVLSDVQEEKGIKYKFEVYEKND
UniProt P12956: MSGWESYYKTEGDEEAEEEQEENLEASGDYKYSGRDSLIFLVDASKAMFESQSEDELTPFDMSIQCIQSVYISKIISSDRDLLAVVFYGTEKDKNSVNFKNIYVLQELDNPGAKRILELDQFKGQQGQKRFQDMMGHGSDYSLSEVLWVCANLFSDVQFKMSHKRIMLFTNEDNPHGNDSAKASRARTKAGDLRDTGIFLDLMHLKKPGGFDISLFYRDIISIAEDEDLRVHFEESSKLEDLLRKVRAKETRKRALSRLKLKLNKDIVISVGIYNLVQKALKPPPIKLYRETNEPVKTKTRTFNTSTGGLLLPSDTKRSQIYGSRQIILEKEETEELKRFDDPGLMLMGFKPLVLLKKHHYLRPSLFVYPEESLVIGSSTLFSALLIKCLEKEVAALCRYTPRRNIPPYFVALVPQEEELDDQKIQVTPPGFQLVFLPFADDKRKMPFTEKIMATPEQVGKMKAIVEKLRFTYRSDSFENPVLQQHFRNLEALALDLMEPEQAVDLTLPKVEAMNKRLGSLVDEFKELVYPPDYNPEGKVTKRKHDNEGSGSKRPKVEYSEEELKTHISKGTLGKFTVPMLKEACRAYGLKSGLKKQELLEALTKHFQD
UniProt P06748: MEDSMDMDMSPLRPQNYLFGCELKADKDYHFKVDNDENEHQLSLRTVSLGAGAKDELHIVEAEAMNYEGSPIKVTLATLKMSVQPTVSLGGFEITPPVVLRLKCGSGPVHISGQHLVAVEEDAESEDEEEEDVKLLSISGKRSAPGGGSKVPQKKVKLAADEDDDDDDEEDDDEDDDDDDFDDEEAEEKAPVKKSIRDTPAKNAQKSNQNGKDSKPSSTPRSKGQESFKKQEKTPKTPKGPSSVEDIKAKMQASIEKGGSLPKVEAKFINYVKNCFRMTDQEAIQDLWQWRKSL

T1: Methylenetetrahydrofolate dehydrogenase (NADP+ dependent) 2 (human (endogenous in HCT-116)) (UniProt P13995)
T1 sequence: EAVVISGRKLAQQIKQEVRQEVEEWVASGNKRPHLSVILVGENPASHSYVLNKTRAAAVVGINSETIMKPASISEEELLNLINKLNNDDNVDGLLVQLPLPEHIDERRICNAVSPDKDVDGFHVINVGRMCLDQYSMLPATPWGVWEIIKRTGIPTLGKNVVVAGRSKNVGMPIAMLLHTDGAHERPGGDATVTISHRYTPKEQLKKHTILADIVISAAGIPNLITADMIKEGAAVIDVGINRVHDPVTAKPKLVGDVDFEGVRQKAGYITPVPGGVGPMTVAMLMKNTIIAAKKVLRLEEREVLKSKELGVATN


Biological target: T1, Methylenetetrahydrofolate dehydrogenase (NADP+ dependent) 2 (human (endogenous in HCT-116))
Assay: affinity purification with mass spectrometry; co-IP of endogenous MTHFD2 from HCT-116 WT lysate (1 or 2 mg, Pierce IP lysis buffer) with two anti-MTHFD2 antibodies (AP, NC) on Dynabeads Protein A, 4 °C, 2 h, no cross-linkage; controls: MTHFD2 knockout (D2-KO) cells and IgG; SDS gel, in-gel digestion, LC-MS/MS

Molecule | binding
MTHFD1 (from UniProt P11586 1-935) (enzyme) | no binding
Splicing factor 3B subunit 3 (from UniProt Q15393 1-1217) | binds
Ezrin (from UniProt P15311 1-586) | binds
Heat shock protein beta-1 (from UniProt P04792 1-205) | binds
Heterogeneous nuclear ribonucleoprotein K (from UniProt P61978 1-463) | binds
ATP-dependent RNA helicase DDX3X (from UniProt O00571 1-662) | binds
Replication protein A 70 kDa DNA-binding subunit (from UniProt P27694 1-616) | binds
Stress-70 protein, mitochondrial (from UniProt P38646 47-679) | binds
Interleukin enhancer-binding factor 2 (from UniProt Q12905 1-390) | binds
Heat shock cognate 71 kDa protein (from UniProt P11142 1-646) | binds
Alpha-enolase (from UniProt P06733 1-434) (enzyme) | binds
TYMS (from UniProt P04818 1-313) (enzyme) | no binding
Heterogeneous nuclear ribonucleoprotein Q (from UniProt O60506 1-623) | binds
DHFR (from UniProt P00374 1-187) (enzyme) | no binding
X-ray repair cross-complementing protein 6 (from UniProt P12956 1-609) | binds
nuclear lamin (human (endogenous in HCT-116)) | no binding
Nucleophosmin (from UniProt P06748 1-294) | binds
60 kDa heat shock protein (from UniProt P10809 27-573) | binds
Heterogeneous nuclear ribonucleoprotein M (protein, UniProt P52272 1-730) MAAGVEAAAEVAATEIKMEEESGAPGVPSGNGAPGPKGEGERPAQNEKRKEKNIKRGGNRFEPYANPTKRYRAFITNIPFDVKWQSLKDLVKEKVGEVTYVELLMDAEGKSRGCAVVEFKMEESMKKAAEVLNKHSLSGRPLKVKEDPDGEHARRAMQKVMATTGGMGMGPGGPGMITIPPSILNNPNIPNEIIHALQAGRLGSTVFVANLDYKVGWKKLKEVFSMAGVVVRADILEDKDGKSRGIGTVTFEQSIEAVQAISMFNGQLLFDRPMHVKMDERALPKGDFFPPERPQQLPHGLGGIGMGLGPGGQPIDANHLNKGIGMGNIGPAGMGMEGIGFGINKMGGMEGPFGGGMENMGRFGSGMNMGRINEILSNALKRGEIIAKQGGGGGGGSVPGIERMGPGIDRLGGAGMERMGAGLGHGMDRVGSEIERMGLVMDRMGSVERMGSGIERMGPLGLDHMASSIERMGQTMERIGSGVERMGAGMGFGLERMAAPIDRVGQTIERMGSGVERMGPAIERMGLSMERMVPAGMGAGLERMGPVMDRMATGLERMGANNLERMGLERMGANSLERMGLERMGANSLERMGPAMGPALGAGIERMGLAMGGGGGASFDRAIEMERGNFGGSFAGSFGGAGGHAPGVARKACQIFVRNLPFDFTWKMLKDKFNECGHVLYADIKMENGKSKGCGVVKFESPEVAERACRMMNGMKLSGREIDVRIDRNA | binds
Heterogeneous nuclear ribonucleoprotein R (protein, UniProt O43390 1-633) MANQVNGNAVQLKEEEEPMDTSSVTHTEHYKTLIEAGLPQKVAERLDEIFQTGLVAYVDLDERAIDALREFNEEGALSVLQQFKESDLSHVQNKSAFLCGVMKTYRQREKQGSKVQESTKGPDEAKIKALLERTGYTLDVTTGQRKYGGPPPDSVYSGVQPGIGTEVFVGKIPRDLYEDELVPLFEKAGPIWDLRLMMDPLSGQNRGYAFITFCGKEAAQEAVKLCDSYEIRPGKHLGVCISVANNRLFVGSIPKNKTKENILEEFSKVTEGLVDVILYHQPDDKKKNRGFCFLEYEDHKSAAQARRRLMSGKVKVWGNVVTVEWADPVEEPDPEVMAKVKVLFVRNLATTVTEEILEKSFSEFGKLERVKKLKDYAFVHFEDRGAAVKAMDEMNGKEIEGEEIEIVLAKPPDKKRKERQAARQASRSTAYEDYYYHPPPRMPPPIRGRGRGGGRGGYGYPPDYYGYEDYYDDYYGYDYHDYRGGYEDPYYGYDDGYAVRGRGGGRGGRGAPPPPRGRGAPPPRGRAGYSQRGAPLGPPRGSRGGRGGPAQQQRGRGSRGSRGNRGGNVGGKRKADGYNQPDSKRRQTNNQQNWGSQPIAQQPLQQGGDYSGNYGYNNDNQEFYQDTYGQQWK | binds
Nuclear fragile X mental retardation-interacting protein 2 (protein, UniProt Q7Z417 1-695) MEEKPGQPQPQHHHSHHHPHHHPQQQQQQPHHHHHYYFYNHSHNHHHHHHHQQPHQYLQHGAEGSPKAQPKPLKHEQKHTLQQHQETPKKKTGYGELNGNAGEREISLKNLSSDEATNPISRVLNGNQQVVDTSLKQTVKANTFGKAGIKTKNFIQKNSMDKKNGKSYENKSGENQSVDKSDTIPIPNGVVTNNSGYITNGYMGKGADNDGSGSESGYTTPKKRKARRNSAKGCENLNIVQDKIMQQETSVPTLKQGLETFKPDYSEQKGNRVDGSKPIWKYETGPGGTSRGKPAVGDMLRKSSDSKPGVSSKKFDDRPKGKHASAVASKEDSWTLFKPPPVFPVDNSSAKIVPKISYASKVKENLNKTIQNSSVSPTSSSSSSSSTGETQTQSSSRLSQVPMSALKSVTSANFSNGPVLAGTDGNVYPPGGQPLLTTAANTLTPISSGTDSVLQDMSLTSAAVEQIKTSLFIYPSNMQTMLLSTAQVDLPSQTDQQNLGDIFQNQWGLSFINEPSAGPETVTGKSSEHKVMEVTFQGEYPATLVSQGAEIIPSGTEHPVFPKAYELEKRTSPQVLGSILKSGTTSESGALSLEPSHIGDLQKADTSSQGALVFLSKDYEIESQNPLASPTNTLLGSAKEQRYQRGLERNDSWGSFDLRAAIVYHTKEMESIWNLQKQDPKRIITYNEAMDSPDQ | binds
Dolichyl-diphosphooligosaccharide--protein glycosyltransferase subunit 1 (protein, UniProt P04843 24-607) ASSEAPPLINEDVKRTVDLSSHLAKVTAEVVLAHLGGGSTSRATSFLLALEPELEARLAHLGVQVKGEDEEENNLEVRETKIKGKSGRFFTVKLPVALDPGAKISVIVETVYTHVLHPYPTQITQSEKQFVVFEGNHYFYSPYPTKTQTMRVKLASRNVESYTKLGNPTRSEDLLDYGPFRDVPAYSQDTFKVHYENNSPFLTITSMTRVIEVSHWGNIAVEENVDLKHTGAVLKGPFSRYDYQRQPDSGISSIRSFKTILPAAAQDVYYRDEIGNVSTSHLLILDDSVEMEIRPRFPLFGGWKTHYIVGYNLPSYEYLYNLGDQYALKMRFVDHVFDEQVIDSLTVKIILPEGAKNIEIDSPYEISRAPDELHYTYLDTFGRPVIVAYKKNLVEQHIQDIVVHYTFNKVLMLQEPLLVVAAFYILFFTVIIYVRLDFSITKDPAAEARMKVACITEQVLTLVNKRIGLYRHFDETVNRYKQSRDISTLNSGKKSLETEHKALTSEIALLQSRLKTEGSDLCDRVSEMQKLDAQVKELVLKSAVEAERLVAGKLKKDTYIENEKLISGKRQELVTKIDHILDAL | binds
SHMT1 (enzyme, UniProt P34896 1-483) MTMPVNGAHKDADLWSSHDKMLAQPLKDSDVEVYNIIKKESNRQRVGLELIASENFASRAVLEALGSCLNNKYSEGYPGQRYYGGTEFIDELETLCQKRALQAYKLDPQCWGVNVQPYSGSPANFAVYTALVEPHGRIMGLDLPDGGHLTHGFMTDKKKISATSIFFESMPYKVNPDTGYINYDQLEENARLFHPKLIIAGTSCYSRNLEYARLRKIADENGAYLMADMAHISGLVAAGVVPSPFEHCHVVTTTTHKTLRGCRAGMIFYRKGVKSVDPKTGKEILYNLESLINSAVFPGLQGGPHNHAIAGVAVALKQAMTLEFKVYQHQVVANCRALSEALTELGYKIVTGGSDNHLILVDLRSKGTDGGRAEKVLEACSIACNKNTCPGDRSALRPSGLRLGTPALTSRGLLEKDFQKVAHFIHRGIELTLQIQSDTGVRATLKEFKERLAGDKYQAAVQALREEVESFASLFPLPGLPDF | no binding
SHMT2 (enzyme, UniProt P34897 30-504) NAAQTQTGEANRGWTGQESLSDSDPEMWELLQREKDRQCRGLELIASENFCSRAALEALGSCLNNKYSEGYPGKRYYGGAEVVDEIELLCQRRALEAFDLDPAQWGVNVQPYSGSPANLAVYTALLQPHDRIMGLDLPDGGHLTHGYMSDVKRISATSIFFESMPYKLNPKTGLIDYNQLALTARLFRPRLIIAGTSAYARLIDYARMREVCDEVKAHLLADMAHISGLVAAKVIPSPFKHADIVTTTTHKTLRGARSGLIFYRKGVKAVDPKTGREIPYTFEDRINFAVFPSLQGGPHNHAIAAVAVALKQACTPMFREYSLQVLKNARAMADALLERGYSLVSGGTDNHLVLVDLRPKGLDGARAERVLELVSITANKNTCPGDRSAITPGGLRLGAPALTSRQFREDDFRRVVDFIDEGVNIGLEVKSKTAKLQDFKSFLLKDSETSQRLANLRQRVEQFARAFPMPGFDEH | no binding
